From patent publication US20110021367A1 (INDIAN INSTITUTE OF SCIENCE, published 2011)
No constants are given. Whether binding was seen depends on the method and setting. Some entries that bind do so weakly or less than the wild type. Sequences can lack the tags named with a protein.

Target: T1, holo-RslA 1-108 (Zn2+ bound N-terminal cytosolic domain of M. tuberculosis anti-σ^L factor RslA), N-term His-tag (Mycobacterium tuberculosis) (UniProt P9WJ67)
T1 sequence (chain, Zn2+ bound in 1,1 stoichiometry (holo, reduced; three free cysteines)): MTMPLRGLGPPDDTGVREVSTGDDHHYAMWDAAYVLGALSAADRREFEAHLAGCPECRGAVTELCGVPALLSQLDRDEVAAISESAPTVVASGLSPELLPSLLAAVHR
Assay: SPR

B1: σ^L2 domain of M. tuberculosis σ^L (N-term His-tag σ^L 1-95) (other)
chain: MARVSGAAAAEAALMRALYDEHAAVLWRYALRLTGDAAQAEDVVQETLLRAWQHPEVIGDTARPARAWLFTVARNMIIDERRSARFRNVVGSTDQ
notes: range 1-95; not shown: N-terminal His-tag from pET-Duet1 MCS1
- binding: binds
